# Data taken from PubChem BioAssay AID2685 (National Center for Advancing Translational Sciences (NCATS), 2010).
# The list shows a part of the results. These are further read-outs of the screen, such as a control signal, another cell line or another target. No call is given for them. Most of these compounds were active or inconclusive in the main read-out, so they are no random draw. Potencies come from curve fits of mixed quality, noted in brackets.
# Test: qHTS Assay for Lipid Storage Modulators in Drosophila S3 Cells;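 on cell number change: cells counted by Cell Tracker Red CMTPX staining in the red channel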
# Conditions: BODIPY lipid droplet fluorescence, 18-24 h; for cell number change: measured here: cell count max response, cells fed with added oleic acid
# Summary of the method: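 Laser-scanning cytometry quantifies lipid droplet accumulation (500–530 nm total intensity; droplet/cell object ratio) in oleic acid-fed (400 uM added) Drosophila S3 cells treated with a concentration series. 20 uM Triacsin C defined 100% inhibition.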
# [1] = measured here: cell number channel AC50, cells fed with added oleic acid
# [2] = measured here: lipid fluorescence (Fed channel) AC50, cells fed with added oleic acid
SMILES,AC50 [1],AC50 [2],cell number change
CC(=O)c1sc(NC(=O)c2ccc(Cn3cc(Br)cn3)o2)nc1C,"0.731 µM [falling, full curve]","0.731 µM [falling, full curve]",–
COc1ccc(CCNS(=O)(=O)c2cc3c(cc2C)NC(=O)CO3)cc1OC,–,"20.6 µM [falling, single point]",19.9%
COc1ccc(S(=O)(=O)N2CCC(C(=O)NCC3CCCO3)CC2)cc1Cl (centres undefined),–,"0.1 µM [falling, full curve, poor fit]",6.58%
COc1ccc(CCn2c(C)cc(C(=O)CSc3nnnn3-c3ccccc3)c2C)cc1OC,"32.6 µM [falling, single point]","2.31 µM [falling, partial curve]",-44.5%
CC1CN(C(=O)N[C@@H](Cc2ccccc2)C(=O)O)CC(C)O1 (some centres undefined),"0.366 µM [falling, full curve, poor fit]","0.82 µM [falling, full curve, poor fit]",-12.9%
CC(=O)c1ccc(OCCCC(=O)Nc2ccc(C)c(S(=O)(=O)N3CCCCC3)c2)cc1,"3.26 µM [rising, single point]",–,–
NC(CC(=O)OC1CCCCC1)C(=O)OC1CCCCC1 (centres undefined),"0.103 µM [falling, full curve, poor fit]",–,-27.7%
CCc1cc(=O)n2c([nH]c3ccccc32)c1C#N,"20.6 µM [rising, single point]",–,44.7%
O=c1[nH]nc(-c2cccs2)c2ccccc12,"3.66 µM [rising, single point]",–,6.9%
O=C(O)CNC(=O)CCN1C(=O)c2ccccc2C1=O,–,"20.6 µM [falling, partial curve]",-19.9%
Cc1ccc(C2(C)NC(=O)N(CC(=O)N3CCN(C(=O)c4cccs4)CC3)C2=O)cc1 (centres undefined),–,"0.103 µM [falling, partial curve, poor fit]",-15.2%
CCc1nnc(NC(=O)c2ccc3ncsc3c2)s1,"5.17 µM [falling, full curve, poor fit]","4.61 µM [falling, full curve]",-42.5%
COc1ccc(NC(=O)CSc2nnc(CNc3ccc(F)cc3)o2)c(OC)c1,"10.3 µM [rising, single point]","20.6 µM [rising, partial curve]",35.3%
O=C(CSc1nc2c([nH]c3ccccc32)c(=O)n1-c1ccccc1)NCC1CCCO1 (centres undefined),"32.6 µM [falling, partial curve]","0.58 µM [falling, single point]",-38.6%
CCCN(CCC)c1nc(NC2CCN(C(=O)OCC)CC2)nc(OC)n1,"13 µM [falling, partial curve]","16.4 µM [falling, partial curve]",-51.5%
C=CCn1c(SCc2nc(N)nc(N3CCCCC3)n2)nnc1-c1ccco1,–,"0.58 µM [rising, partial curve, poor fit]",-17%
CC1=C(C(=O)N2CCCC(N3CCN(c4ccccc4F)CC3)C2)OCCO1 (centres undefined),–,"6.51 µM [rising, full curve, poor fit]",–
CC(NC(=O)C1CC1)c1ccc(-c2ccccc2)cc1 (centres undefined),–,–,-14.3%
COc1ccccc1C(=O)Nc1ccc2nc3n(c(=O)c2c1)CCCC3,–,–,0.37%
CC1CN(Cc2ccccc2Cl)CC(C)O1 (centres undefined),–,–,4.44%
CNC(=O)CC(C(=O)O)c1ccc(OC(C)C)cc1 (centres undefined),–,"2.59 µM [falling, full curve]",-0.559%

# Laid out differently: entries from further up.
SMILES	AC50 [1]	AC50 [2]	cell number change
CC(=O)c1sc(NC(=O)c2ccc(Cn3cc(Br)cn3)o2)nc1C	0.731 µM [falling, full curve]	0.731 µM [falling, full curve]	–
COc1ccc(CCNS(=O)(=O)c2cc3c(cc2C)NC(=O)CO3)cc1OC	–	20.6 µM [falling, single point]	19.9%
COc1ccc(S(=O)(=O)N2CCC(C(=O)NCC3CCCO3)CC2)cc1Cl (centres undefined)	–	0.1 µM [falling, full curve, poor fit]	6.58%

# Additional structures

SMILES,AC50 [1],AC50 [2],cell number change
COCCNS(=O)(=O)c1cc(F)ccc1OC,"29.1 µM [falling, single point]","29.1 µM [falling, single point]",-85%
CC1=NN(Cc2cc(C(C)(C)C)c(O)c(C(C)(C)C)c2)C(=O)C1,–,"14.6 µM [falling, partial curve, poor fit]",–
Cc1[nH]n(-c2ccccc2)c(=O)c1C=NC1CCCCCC1,–,–,-37.2%
Cc1cc(NS(=O)(=O)c2ccc(NC(=O)Cc3ccc([N+](=O)[O-])cc3)cc2)no1,–,"29.1 µM [rising, single point]",-2.97%
Cc1cc(Cl)c(OCCN2C(=O)NC(C)(C)C2=O)c(Br)c1,"2.06 µM [rising, partial curve]",–,–
Cc1cc2c(C)cc(=O)oc2c2c1NCCC2,"2.31 µM [rising, partial curve, poor fit]",–,57.8%
O=C(O)CN1C(=O)C(=O)N(Cc2cccc(F)c2)C1=O,–,–,22.8%
Cc1onc(-c2ccccc2)c1C(=O)NNC(=S)NC(=O)c1ccc(Br)cc1,–,"16.4 µM [falling, single point]",-28.8%
CN(C)CCN(C(=O)/C=C/c1cccs1)c1nc2ccc(F)cc2s1,–,"29.1 µM [falling, single point]",-17.1%
CCOc1ccccc1N1CCN(C(=S)Nc2ccc(S(N)(=O)=O)cc2)CC1,–,"25.9 µM [rising, single point]",-3.33%
CCc1cccc(N=c2c([N+](=O)[O-])nn(-c3ccc4c(c3)OCCO4)n2O)c1,–,"0.58 µM [rising, partial curve, poor fit]",-12.9%
Cc1cc(C)c2ccc(N)nc2c1O,"0.58 µM [falling, single point]",–,–
CCCC1Cc2nc(N3CCCCC3)c(C#N)cc2CO1 (centres undefined),–,"20.6 µM [falling, single point]",-10.3%
O=C(c1ccccc1C(=O)N1CCN(c2ccccc2F)CC1)N1CCN(c2ccccc2F)CC1,–,"18.4 µM [rising, single point]",19.8%
CCCCC(=O)NC(=S)NNC(=O)CCc1ccccc1,–,"8.2 µM [rising, partial curve, poor fit]",7.99%
COc1cccc(OC)c1C(=O)NC(=S)Nc1ccc2oc(-c3ccncc3)nc2c1,"0.146 µM [rising, full curve, poor fit]",–,1.13%
COc1ccc(N2CC(C(=O)NCc3ccccc3)CC2=O)cc1 (centres undefined),–,"6.51 µM [rising, single point]",7.23%
C=C(C)c1cccc(C(C)(C)NC(=O)NCCCN2CCCC2=O)c1,–,"0.164 µM [rising, full curve, poor fit]",9.52%
C/C(=N\NC(=O)c1ccc(CSc2nc(C)cc(C)n2)cc1)C1CCCCC1,–,"0.651 µM [falling, full curve, poor fit]",18.7%
O=C1N/C(=N/N=C/c2ccccc2O)SC1Cc1ccc(F)cc1 (centres undefined),–,"0.366 µM [rising, partial curve]",17.3%
O=C(COC(=O)COc1ccc(Br)cc1)NCc1ccccc1,–,"8.2 µM [rising, partial curve]",-7.77%

# Complete entries, looked up by structure.
# COc1ccc(NC(=O)CSc2nnc(CNc3ccc(F)cc3)o2)c(OC)c1 as listed: AC50 [1]: 10.3 µM [rising, single point]; AC50 [2]: 20.6 µM [rising, partial curve]; cell number change: 35.3%
# Cc1cc(C)c2ccc(N)nc2c1O as listed: AC50 [1]: 0.58 µM [falling, single point]

# (listing goes on)

SMILES,AC50 [1],AC50 [2],cell number change
Cc1ccc(C)[n+](CC(=O)N2CCCCC2)c1,"6.51 µM [falling, partial curve, poor fit]","7.31 µM [falling, partial curve, poor fit]",-46.4%
O=C(COC(=O)C1CCN(c2ccc(C(F)(F)F)cn2)CC1)NCc1cccc(Cl)c1,"0.00461 µM [falling, full curve]",–,-2.5%
NC(=O)[C@H]1CC2(CC(c3cccc(NC(=O)COc4ccc(Cl)cc4)c3)=NO2)CN1C(=O)c1ccc(Cl)cc1 (some centres undefined),"29.1 µM [falling, single point]","29.1 µM [falling, single point]",-37%
O=C(NC(=S)Nc1ccc(S(=O)(=O)Nc2nccs2)cc1)c1ccccc1,–,"1.16 µM [rising, full curve]",1.76%
COc1ccccc1CCN=C(N)NS(=O)(=O)c1ccc(C)cc1,–,"1.64 µM [falling, partial curve, poor fit]",-19.5%
CCOc1ccc(S(=O)(=O)Nc2ccc3c(c2)c2c(n3S(=O)(=O)c3ccc(OCC)cc3)CCCC2=O)cc1,–,"13 µM [rising, partial curve]",21.1%
Cc1noc(NS(=O)(=O)c2ccc(NC(=O)CSc3nc4c(cc3C#N)CCC4)cc2)c1C,–,"18.4 µM [rising, single point]",21.5%
COc1cc(C(=O)OCC2CC(c3ccccc3)=NO2)cc(OC)c1OC (centres undefined),"0.164 µM [rising, full curve, poor fit]",–,–
Cc1ccc2c(CC(=O)O)coc2c1C,–,–,3.41%
CCCOc1ccc(Cn2c(=O)oc3ccc(C)cc32)cc1,–,"6.51 µM [rising, single point]",-20.1%
Cc1onc(-c2ccccc2Cl)c1C(=O)N1CCN(C)CC1,–,–,20.7%
COc1ccc(CCn2c3c(c(=O)[nH]c2=O)C(NC(=O)c2cccs2)(C(F)(F)F)C(=O)N3)cc1OC (centres undefined),–,"0.731 µM [falling, single point]",–
CCOC(=O)CSc1nc(N)c(C#N)c(-c2ccc(OC)cc2)c1C#N,–,"0.00411 µM [rising, full curve, poor fit]",0.996%
O=C(Nc1ccc(Br)cc1)c1ccc(CSC2=NCCS2)cc1,–,–,76.7%
O=C(COC(=O)C1CCN(S(=O)(=O)c2cccs2)CC1)Nc1ccccc1,–,–,-43.4%
CCC1(Cc2ccccc2)NC(=O)c2ccccc2O1 (centres undefined),"3.26 µM [rising, full curve]",–,50.9%
CC(Sc1ncnc2c1cnn2-c1ccccc1)C(=O)NCC1CCCO1 (centres undefined),–,–,16.1%
CC(C)[C@H](NC(=O)N1CCn2c1nc1ccccc12)C(=O)NCC1CCCO1 (some centres undefined),–,–,6.27%
COc1cc(/C=N/OCC(=O)NC2CCCCC2C)ccc1OCc1ccc(Cl)cc1 (centres undefined),"1.64 µM [falling, partial curve, poor fit]","6.51 µM [rising, single point]",-39.5%
